Measurements: US10954333B2, “Metal-bearing urethanized polymer soluble in a low-volatile organic compound solvent” (EGE KIMYA SANAYI VE TICARET A. S., priority 2015, dated 2021)

Assay: Performance as polyester curing accelerator
Details: 0.2 phr accelerator, 2 phr Butanox M 60 initiator, 25° C.

cobalt 2-ethylhexanoate [Cobalt Octoate]
PEAK TEMP: 145 °C
